Data on three substances can be found in PMC11277477.

The chains behind the UniProt entries cited, without tags or fusion partners.
UniProt B1N4X0: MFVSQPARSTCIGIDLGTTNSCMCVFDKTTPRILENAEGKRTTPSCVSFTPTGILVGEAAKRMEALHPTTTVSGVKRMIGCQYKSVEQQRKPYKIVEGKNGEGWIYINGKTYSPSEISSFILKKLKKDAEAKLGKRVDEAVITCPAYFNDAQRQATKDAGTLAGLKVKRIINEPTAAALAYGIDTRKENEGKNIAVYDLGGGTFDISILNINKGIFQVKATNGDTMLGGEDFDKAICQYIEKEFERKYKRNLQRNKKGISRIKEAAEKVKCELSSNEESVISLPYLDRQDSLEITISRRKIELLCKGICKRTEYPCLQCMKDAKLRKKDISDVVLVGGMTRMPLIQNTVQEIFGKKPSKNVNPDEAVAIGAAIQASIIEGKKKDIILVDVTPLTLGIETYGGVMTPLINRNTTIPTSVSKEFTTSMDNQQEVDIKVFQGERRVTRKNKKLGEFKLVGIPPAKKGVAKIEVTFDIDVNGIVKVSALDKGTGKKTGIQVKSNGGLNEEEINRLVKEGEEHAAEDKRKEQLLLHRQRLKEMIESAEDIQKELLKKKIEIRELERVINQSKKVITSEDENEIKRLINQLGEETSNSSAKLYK
UniProt C4MAR7: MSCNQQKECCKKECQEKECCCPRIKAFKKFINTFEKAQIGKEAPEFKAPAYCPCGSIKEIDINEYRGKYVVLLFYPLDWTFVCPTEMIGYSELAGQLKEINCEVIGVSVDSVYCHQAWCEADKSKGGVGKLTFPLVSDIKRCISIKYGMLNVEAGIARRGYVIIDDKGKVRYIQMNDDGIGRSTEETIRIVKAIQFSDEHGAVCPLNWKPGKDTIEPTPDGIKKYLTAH
UniProt C4M8X7: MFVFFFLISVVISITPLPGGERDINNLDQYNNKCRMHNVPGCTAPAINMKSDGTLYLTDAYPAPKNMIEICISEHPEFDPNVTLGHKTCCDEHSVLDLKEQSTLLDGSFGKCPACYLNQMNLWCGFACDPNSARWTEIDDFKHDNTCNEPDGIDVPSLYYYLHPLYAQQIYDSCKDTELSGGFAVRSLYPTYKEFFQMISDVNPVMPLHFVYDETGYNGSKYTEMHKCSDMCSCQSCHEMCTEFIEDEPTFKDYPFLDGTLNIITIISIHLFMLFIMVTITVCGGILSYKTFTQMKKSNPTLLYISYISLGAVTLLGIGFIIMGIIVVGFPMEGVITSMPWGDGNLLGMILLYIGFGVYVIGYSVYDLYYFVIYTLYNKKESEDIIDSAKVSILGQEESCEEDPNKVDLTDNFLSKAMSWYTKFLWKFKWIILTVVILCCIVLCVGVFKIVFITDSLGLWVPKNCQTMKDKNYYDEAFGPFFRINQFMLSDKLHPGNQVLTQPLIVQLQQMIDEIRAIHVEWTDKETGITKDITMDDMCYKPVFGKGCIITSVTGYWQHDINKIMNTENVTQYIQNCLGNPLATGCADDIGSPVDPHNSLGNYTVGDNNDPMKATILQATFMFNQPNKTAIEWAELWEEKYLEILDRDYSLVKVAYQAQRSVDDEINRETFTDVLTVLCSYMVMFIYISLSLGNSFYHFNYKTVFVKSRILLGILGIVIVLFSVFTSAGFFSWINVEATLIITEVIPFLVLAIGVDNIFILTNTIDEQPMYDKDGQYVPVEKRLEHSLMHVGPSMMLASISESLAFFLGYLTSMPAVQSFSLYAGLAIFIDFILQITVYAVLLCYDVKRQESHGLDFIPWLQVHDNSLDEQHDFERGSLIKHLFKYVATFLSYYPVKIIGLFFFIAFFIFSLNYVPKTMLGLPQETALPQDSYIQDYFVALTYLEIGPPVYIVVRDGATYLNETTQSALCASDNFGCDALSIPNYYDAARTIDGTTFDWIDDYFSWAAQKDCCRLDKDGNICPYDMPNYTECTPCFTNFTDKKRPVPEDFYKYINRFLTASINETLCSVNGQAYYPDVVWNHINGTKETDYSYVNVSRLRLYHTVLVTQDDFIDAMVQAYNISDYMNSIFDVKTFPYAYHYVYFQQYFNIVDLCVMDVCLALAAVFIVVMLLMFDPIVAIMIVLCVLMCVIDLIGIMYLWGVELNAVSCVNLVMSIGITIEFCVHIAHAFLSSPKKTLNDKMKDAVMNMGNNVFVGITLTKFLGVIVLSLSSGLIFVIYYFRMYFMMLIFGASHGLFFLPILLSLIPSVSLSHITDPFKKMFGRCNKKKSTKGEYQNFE

No constants are given. Whether binding was seen depends on the method and setting. Binding seen in cells or lysates may run through a third protein. Some entries that bind do so weakly or less than the wild type.

For test [1], the target named is GST-Linker recombinant protein (E. histolytica). Description: pull-down; GST-tagged bait bound to glutathione-Sepharose (200 μg) incubated with total trophozoite lysate (2 mg), 4 h, 4 °C; bound proteins detected by western blot with specific antibodies; only the target purified. For orientation: In western blotting, separated proteins are transferred to a membrane and probed.

For test [2], the target named is GST-Adh recombinant protein (E. histolytica). Described as above.

Take “EhHSP70 (EHI_127700) (from UniProt B1N4X0 1-598)”: the binding entry in test [1] was “binds”.

On to “EhPeroxiredoxin (EhPrx) (from UniProt C4MAR7 1-229) (enzyme)”, for which, in test [2], the binding entry is given as “binds”. Turning to EhNPC1 (from UniProt C4M8X7 1-1339), in test [1], the binding entry was “binds”.
